Like-named read-outs stand apart in the source and are kept apart here. Results are given in words; binding and its absence hold for the method and conditions named. For part of these data: Binding can be weak; no strength is given. For part of these data: Where a sequence is shown, tags or fusion partners need not be part of it. For part of these data: In cells and extracts the contact can be indirect.
Experiments:
[1] = biological target: T1, His-tagged FliS of C. jejuni (C. jejuni) (UniProt P0DPD3); test: pull-down; His-tagged bait (FliS-His or RacR-His) refolded on Ni2+-NTA agarose beads; culture supernatant of C. jejuni BC7 added, 1 h at RT; washed with 20 mM Tris, 250 mM NaCl, 20 mM imidazole, pH 7.4; eluted with 300 mM imidazole; blots with anti-FlaA/B or anti-FlaC serum; only the target …
T1 sequence: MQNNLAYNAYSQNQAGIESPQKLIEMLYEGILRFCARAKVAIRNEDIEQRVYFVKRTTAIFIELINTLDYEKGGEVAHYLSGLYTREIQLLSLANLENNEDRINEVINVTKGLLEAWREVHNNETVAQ

[2] = biological target: T2, His-tagged RacR protein of C. jejuni (C. jejuni) (UniProt O68795); test: as above
T2 sequence: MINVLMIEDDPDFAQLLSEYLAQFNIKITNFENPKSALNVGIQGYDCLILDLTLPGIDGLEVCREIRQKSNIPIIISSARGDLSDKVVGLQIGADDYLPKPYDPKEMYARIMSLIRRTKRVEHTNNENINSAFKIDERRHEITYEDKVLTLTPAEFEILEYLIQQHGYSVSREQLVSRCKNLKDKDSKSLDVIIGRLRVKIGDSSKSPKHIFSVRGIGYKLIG

[3] = biological target: T3, recombinant His-tagged FlaA flagellin of C. jejuni (non-glycosylated, E. coli-derived) (C. jejuni) (UniProt P22251); test: far-Western, overlay or dot blot; serial dilutions (500, 250, 125, 62.5 ng) of purified His-tagged FlaA (in 4 M urea, 10 mM Tris, pH 9.0) separated by SDS-PAGE, blotted; probed with 50, 100, 200 μg of GST-FliS, 50 μg of GST-FliW or 200 μg of GST; both purified
T3 sequence: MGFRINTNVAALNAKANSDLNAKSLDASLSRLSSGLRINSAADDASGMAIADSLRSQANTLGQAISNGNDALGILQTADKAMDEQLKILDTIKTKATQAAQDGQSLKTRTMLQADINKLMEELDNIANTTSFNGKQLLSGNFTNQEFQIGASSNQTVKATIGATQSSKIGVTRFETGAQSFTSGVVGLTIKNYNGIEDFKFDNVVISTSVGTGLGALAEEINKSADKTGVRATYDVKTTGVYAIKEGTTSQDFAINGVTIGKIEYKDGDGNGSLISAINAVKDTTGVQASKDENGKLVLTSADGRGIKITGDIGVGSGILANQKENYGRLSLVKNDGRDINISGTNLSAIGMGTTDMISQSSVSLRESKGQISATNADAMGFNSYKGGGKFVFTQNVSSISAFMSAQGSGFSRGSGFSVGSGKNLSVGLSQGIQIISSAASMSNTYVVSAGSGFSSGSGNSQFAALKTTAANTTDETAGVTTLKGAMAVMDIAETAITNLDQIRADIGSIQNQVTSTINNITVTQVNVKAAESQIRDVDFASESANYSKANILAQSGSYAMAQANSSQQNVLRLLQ

[4] = biological target: T3, recombinant His-tagged FlaA flagellin of C. jejuni (non-glycosylated, E. coli-derived) (C. jejuni); test: far-Western, overlay or dot blot; 500 ng of total cell lysates of induced E. coli BL21 Star (DE3) expressing the His-tagged proteins (5 μg, 10x concentrated, for FlaAΔND0 and FlaAΔND1) separated by SDS-PAGE, on nitrocellulose; probed with 50 μg of purified GST-FliS, GST-FliW or GST in 2% skim milk TBS-T; anti-GST detection; only the binder purified
[5] = biological target: recombinant His-tagged FlaC flagellin of C. jejuni (C. jejuni) (UniProt P96747); test: as above
[6] = biological target: T4, recombinant His-tagged FlaB flagellin of C. jejuni (C. jejuni) (UniProt P22252); test: as above
T4 sequence: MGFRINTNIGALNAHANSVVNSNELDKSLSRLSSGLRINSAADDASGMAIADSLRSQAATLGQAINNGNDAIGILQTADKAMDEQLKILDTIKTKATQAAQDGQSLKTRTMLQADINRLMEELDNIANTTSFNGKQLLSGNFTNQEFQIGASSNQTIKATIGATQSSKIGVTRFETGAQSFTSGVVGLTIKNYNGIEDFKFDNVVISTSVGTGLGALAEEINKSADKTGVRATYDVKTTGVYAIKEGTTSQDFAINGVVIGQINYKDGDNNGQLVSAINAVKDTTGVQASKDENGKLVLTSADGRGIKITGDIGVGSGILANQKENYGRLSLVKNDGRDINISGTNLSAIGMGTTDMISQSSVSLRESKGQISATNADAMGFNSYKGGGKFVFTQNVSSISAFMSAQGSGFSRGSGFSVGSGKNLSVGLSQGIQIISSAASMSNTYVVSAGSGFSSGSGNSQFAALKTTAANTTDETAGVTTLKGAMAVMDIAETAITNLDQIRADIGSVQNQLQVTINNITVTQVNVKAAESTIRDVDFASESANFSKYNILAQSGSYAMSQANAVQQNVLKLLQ

FlaAΔC10 (C. jejuni) = test: far-Western, overlay or dot blot; 500 ng of purified full length FlaA and FlaAΔC10, FlaAΔC16, FlaAΔC39 separated by SDS-PAGE, on nitrocellulose; probed with 50 μg of GST-FliS or GST-FliW; anti-GST detection; both purified
FlaAΔC39 (C. jejuni) = test: as above
FlaAΔC16 (C. jejuni) = test: as above
FlaAΔCD0 (C. jejuni) = test: far-Western, overlay or dot blot; 500 ng of total cell lysates of induced E. coli BL21 Star (DE3) expressing the His-tagged proteins (5 μg, 10x concentrated, for FlaAΔND0 and FlaAΔND1) separated by SDS-PAGE, on nitrocellulose; probed with 50 μg of purified GST-FliS, GST-FliW or GST in 2% skim milk TBS-T; anti-GST detection; only the binder purified
[7] = biological target: recombinant His-tagged FlaC flagellin of C. jejuni (C. jejuni) (UniProt P96747); test: as above; remark: listed apart in the source
FlaAΔND0 (C. jejuni) = test: as above
[8] = biological target: His-tagged FliC flagellin from S. enterica sv. Enteritidis (S. enterica sv. Enteritidis); test: as above
FlaAΔND1 (C. jejuni) = test: as above
FlaAΔCD1 (C. jejuni) = test: as above
[9] = biological target: FlaA/B flagellin of C. coli (C. coli (endogenous)); test: far-Western, overlay or dot blot; 10 μl of stationary-phase liquid cultures (OD600 1) of C. jejuni strains, C. coli and C. fetus separated by SDS-PAGE, on nitrocellulose; probed with 50 μg of GST-FliS, GST-FliW or GST; anti-GST detection; only the binder purified
[10] = biological target: FlaA/B flagellin of C. fetus (C. fetus (endogenous)); test: as above
[11] = biological target: C. jejuni-derived FlaC flagellin (culture supernatant of strain BC7) (C. jejuni (endogenous in strain BC7)); test: far-Western, overlay or dot blot; serial dilutions (500, 250, 125, 62.5 ng) of culture supernatant of C. jejuni BC7 (with or without 4 M urea) separated by SDS-PAGE, blotted; probed with 50, 100, 200 μg of GST-FliS, 50 μg of GST-FliW or 200 μg of GST; only the binder purified

For “C. jejuni-derived FlaC flagellin (culture supernatant of strain BC7)”, the binding [1] was “binds” and the binding [2] was “no binding”.

In the case of “GST-tagged FliW of C. jejuni (from UniProt Q0P9H9)”, the binding [3] is reported as “binds”, the binding [4] is reported as “binds” and the binding [5] is reported as “no binding (tested: 50 μg of probe)”. For the same molecule, the binding [6] was “binds”.

B1: GST-tagged FliS of C. jejuni (protein, UniProt P0DPD3 1-128)
chain: MQNNLAYNAYSQNQAGIESPQKLIEMLYEGILRFCARAKVAIRNEDIEQRVYFVKRTTAIFIELINTLDYEKGGEVAHYLSGLYTREIQLLSLANLENNEDRINEVINVTKGLLEAWREVHNNETVAQ
B1 was tested, and the binding (FlaAΔC10 (C. jejuni)) was “no binding (tested: 50 μg of probe)”, the binding (FlaAΔC39 (C. jejuni)) was “no binding (tested: 50 μg of probe)” and the binding (FlaAΔC16 (C. jejuni)) was “no binding (tested: 50 μg of probe)”. For the same molecule, the binding (FlaAΔCD0 (C. jejuni)) was “no binding (tested: 50 μg of probe)”, the binding [7] was “binds” and the binding (FlaAΔND0 (C. jejuni)) was “binds”. For the same molecule, the binding [8] was “no binding (tested: 50 μg of probe)”, the binding (FlaAΔND1 (C. jejuni)) was “binds” and the binding (FlaAΔCD1 (C. jejuni)) was “no binding (tested: 50 μg of probe)”. The binding [9] was “binds”, the binding [10] was “binds” and the binding [11] was “binds”.

From article PMC5466977
